A short description of the assay: qHTS Assay for Lipid Storage Modulators in Drosophila S3 Cells.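 On cell number change: cells counted by Cell Tracker Red CMTPX staining in the red channel.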 As to conditions: BODIPY lipid droplet fluorescence, 18-24 h; for cell number change: measured here: cell count max response, cells fed with added oleic acid. The gist of the method: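 Drosophila S3 cells loaded with oleic acid (400 uM, as added) and compounds at several concentrations; lipid droplets imaged by 488-nm laser-scanning cytometry, 500–530 nm intensity and object ratio to cell channel. Percent activity normalized to 20 uM Triacsin C.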

The mark [1] stands for this setting: measured here: cell number channel AC50, cells fed with added oleic acid.
Where [2] appears, read: measured here: lipid fluorescence (Fed channel) AC50, cells fed with added oleic acid.

This is an account of results in PubChem BioAssay AID2685 (National Center for Advancing Translational Sciences (NCATS), 2010).

Some of the results follow. These are further read-outs of the screen, such as a control signal, another cell line or another target. No call is given for them. Most of these compounds were active or inconclusive in the main read-out, so they are no random draw. Potencies come from curve fits of mixed quality, noted in brackets.

For the compound `COCc1cc(C)nc2sc(C(=O)NC3CCCCC3)c(N)c12`, the half-maximal activity concentration (AC50) (commonly the concentration giving half of the maximal activity seen) was 0.58 µM [rising, full curve] under setting [1] and 3.66 µM [rising, partial curve, poor fit] under setting [2].
With `O=C(NCc1ccncc1)c1cccc(NS(=O)(=O)c2ccc(F)c(F)c2)c1`, the cell number change is -15%.
On the same count and under the same terms, to `CC1CCN(S(=O)(=O)c2nnc(NC(=O)COc3ccccc3)s2)CC1` belongs 22.7%.
Take `Cc1cc(Nc2ccc(Cl)cc2)n(-c2cccc(Cl)c2)n1`: the cell number change is 27.2%. The AC50 under setting [2] is 6.51 µM [rising, single point].
`COc1ccc(NC(=O)c2cccc(-n3cnnn3)c2)cc1`: the cell number change is -6.44%. Also, the AC50 under setting [2] was 29.1 µM [falling, single point].
For the compound `CCCC(C)C(=O)Nc1ncc(S(=O)(=O)c2ccc([N+](=O)[O-])cc2)s1` (centres undefined), the cell number change is -31.9%. For the same compound, under setting [1], the half-maximal activity concentration (AC50) was 25.9 µM [falling, single point]. Also, the half-maximal activity concentration (AC50) under setting [2] is 8.2 µM [falling, partial curve, poor fit].
`CCCc1cc(C(=O)NCc2cccs2)no1`: the cell number change was -34.4%. In addition, the AC50 under setting [1] is 29.1 µM [falling, single point]. The AC50 under setting [2] is 0.116 µM [falling, full curve, poor fit].
Turning to `O=C(Nc1cccc(-c2nn[nH]n2)c1)c1ccc(Cl)s1`, under setting [2], the AC50 is 6.51 µM [rising, single point].
Take `COc1ccc(-c2sc3ccccc3c2C#CCO)cc1`: the cell number change was -10.4%. For the same compound, the half-maximal activity concentration (AC50) under setting [2] was 0.13 µM [falling, full curve, poor fit].
With `O=C(Cc1ccccc1)Nn1cnc2ccccc21`, the cell number change worked out at 31.6%. Further, under setting [1], the AC50 was 0.366 µM [rising, full curve].
Turning to `N#CC1(P(=O)(c2ccccc2)c2ccccc2)CCCC1`, the cell number change was found to be 2.17%. Moreover, the concentration at half-maximal activity (AC50) under setting [2] was 0.58 µM [rising, single point].
As for `CCN1CCN(c2cc(C)c3cc(NC(=O)CCC(=O)Nc4ccc(OC)c(OC)c4)ccc3n2)CC1`, the cell number change was 58.9%. For the same compound, under setting [1], the half-maximal activity concentration (AC50) was 1.03 µM [rising, full curve, poor fit].
Consider `COc1cc(S(=O)(=O)NC2CCCCC2)ccc1Cl`, for which the cell number change is -31.6%. The concentration at half-maximal activity (AC50) under setting [1] is 20.6 µM [falling, single point]. For the same compound, the concentration at half-maximal activity (AC50) under setting [2] is 20.6 µM [falling, single point].
As to `O=C(CN1C(=O)NC2(CCCCC2)C1=O)NCCc1c[nH]c2ccccc12`, the cell number change stood at 24%.
Take `CSCCC1NC(=O)NC1=O` (centres undefined): the cell number change is -1.07%. In addition, under setting [2], the AC50 was 1.16 µM [falling, full curve].
As for `O=C(COc1ccc(-n2cnnn2)cc1)Nc1ccccc1OC(F)F`, the cell number change is -0.564%. The concentration at half-maximal activity (AC50) under setting [2] is 0.00517 µM [falling, full curve, poor fit].
For the compound `O=C(CCNS(=O)(=O)c1ccccc1F)N1CCN(C(c2ccccc2)c2ccccc2)CC1`, the AC50 under setting [2] is 1.84 µM [falling, partial curve].
Take `O=C1CC(N2CCN(C/C=C/c3ccccc3)CC2)C(=O)N1Cc1ccc(N2CCCC2=O)cc1` (centres undefined): the cell number change was -6.8%. Under setting [2], the AC50 was 4.61 µM [falling, single point].
Take `COc1cc(NC(=O)C23CC4CC(C2)CC(n2cnc([N+](=O)[O-])n2)(C4)C3)cc(OC)c1`: the cell number change was found to be 28.2%. Further, the AC50 under setting [2] was 2.31 µM [rising, single point].
`O=C(NNC(=O)c1cccs1)c1ccncc1`: the cell number change is -1.41%. Under setting [2], the AC50 was 3.26 µM [falling, partial curve, poor fit].
Consider `N#Cc1cnn2c3c(cnc12)C(=O)N1CCc2ccccc2C1C3` (centres undefined), for which the cell number change turned out to be 40.4%. For the same compound, under setting [1], the AC50 was 4.61 µM [rising, full curve]. Further, under setting [2], the AC50 was 3.66 µM [rising, partial curve, poor fit].
As for `CCOC(=O)C1Cc2c([nH]c3ccccc23)C(C)N1` (centres undefined), under setting [2], the AC50 was 3.66 µM [rising, full curve].
`CCC(NC(=O)c1cc(COc2ccc(OC)cc2Cl)on1)c1ccncc1` (centres undefined): the cell number change is 19.9%.
On to `COc1ccc(CCNC(=O)CCC(=O)Nc2nnc(C(C)C)s2)cc1OC`, for which the cell number change worked out at 33.3%. Also, the half-maximal activity concentration (AC50) under setting [1] is 29.1 µM [rising, single point]. Also, the concentration at half-maximal activity (AC50) under setting [2] was 0.731 µM [falling, full curve].
`Cc1ccc(C(=O)C(OC(=O)c2cnccn2)c2ccccc2)cc1` (centres undefined): the cell number change was 14.6%.
Turning to `Cc1oc2ccc(OC(=O)N3CCOCC3)cc2c1C(=O)OC(C)C`, the cell number change is -4.71%. The AC50 under setting [2] is 11.6 µM [rising, single point].
As for `COc1cc(/C=N/Nc2nncn2N)ccc1OCc1c(C)no[n+]1[O-]`, the cell number change is -58%. In addition, the AC50 under setting [1] is 29.1 µM [falling, single point]. Moreover, under setting [2], the AC50 is 29.1 µM [falling, single point].
On to `C[C@H](NC(=O)NCc1cccs1)C(=O)O`, for which the AC50 reads like this: under setting [1], 0.291 µM [falling, full curve, poor fit]; under setting [2], 23.1 µM [falling, partial curve].
Regarding `C/C(=N\NC(=O)COc1ccccc1-c1ccccc1)c1ccccn1`, the cell number change was -28.4%. Moreover, under setting [2], the AC50 is 0.58 µM [falling, full curve].
In the case of `O=C1c2ccccc2C(=O)N1Cc1ccccc1F`, the AC50 under setting [2] is 6.51 µM [falling, partial curve, poor fit].
In the case of `Cc1cc(NC(=O)CSc2[nH]c(=O)cc(C(F)(F)F)c2C#N)no1`, the cell number change was found to be 39.8%. The AC50 under setting [1] was 10.3 µM [rising, partial curve, poor fit].
Turning to `O=C(CSc1nnc(CNC(=O)c2ccccc2F)o1)Nc1ccc2c(c1)OCCO2`, the cell number change was found to be 35.9%. Besides, the AC50 under setting [1] is 9.2 µM [rising, partial curve, poor fit]. Further, under setting [2], the concentration at half-maximal activity (AC50) was 29.1 µM [rising, single point].
`O=C(COC(=O)COc1ccccc1Cc1ccccc1)Nc1cccnc1Cl`: the cell number change was found to be 133%. In addition, the half-maximal activity concentration (AC50) under setting [1] was 29.1 µM [rising, single point].
In the case of `N#Cc1ccc(Cn2ccnc2C(=O)Nc2ccccc2)cc1`, the cell number change came to 21.2%. In addition, the AC50 under setting [1] is 2.06 µM [rising, partial curve]. In addition, the concentration at half-maximal activity (AC50) under setting [2] is 6.51 µM [rising, single point].
For `CCN(CC)c1ccc(/C=C(/C#N)c2nc3ccc(C)cc3[nH]2)c(OC(C)C)c1`, the cell number change was -95.4%. Under setting [1], the concentration at half-maximal activity (AC50) is 20.6 µM [falling, partial curve]. Further, under setting [2], the AC50 is 4.11 µM [falling, full curve].
Regarding `Cc1ccc(C(=O)N2CCOCC2)cc1S(=O)(=O)Nc1cccc(C)c1C`, the cell number change is -29.5%. Also, the AC50 under setting [2] was 29.1 µM [falling, single point].
`COc1ccc(C(=O)NC2CCCCCC2)cc1S(=O)(=O)N1CCCc2ccccc21`: the concentration at half-maximal activity (AC50) reads like this: under setting [1], 1.64 µM [rising, partial curve]; under setting [2], 1.84 µM [rising, partial curve].
